Experimental data taken from US7439063B2, “Neuroprotective synergy of erythropoietin and insulin-like growth factors” (Burnham Institute for Medical Research, priority 2002, dated 2008).
At least one compound was matched to its structure with a doubt left.

Tested on: rat primary cerebrocortical cultures
Conditions: 10 μM LY294002 added 30 minutes prior to growth factors; p<0.05
Description: Neuronal apoptosis was quantified by double labeling for TUNEL reactivity, which in conjunction with condensed morphology is indicative of apoptosis, and the neuron-specific protein microtubule associated protein-2 (MAP2) 16 hours after NMDA insult.
For these experiments, mixed neuronal/glial cerebrocortical cultures were prepared as described previously (Bonfoco et al., supra, 1995); Lei et al., Neuron 8:1087-1099 (1992); and Lipton et al., Nature 364:626-632 (1993)). In brief, cortical tissue from embryonic day 16 Sprague-Dawley rats was dissociated in 0.5% trypsin and plated on poly-L-lysine coated glass coverslips at a density of 10^5 cells per 35 mm culture dish in serum-containing medium. Prior to experimental use, cerebrocortical neurons were kept at 37° C. and 5% CO2 for at least 17 days to permit full expression of NMDA receptors (Lei et al., supra, 1992; and Lipton et al., supra, 1993). […]
PI3-kinase activity was inhibited pharmacologically with 10 μM LY294002 (Calbiochem; San Diego, Calif.) dissolved in dimethylsulfoxide (DMSO, Sigma) and added to cultures 30 minutes prior to the addition of the indicated growth factor or factors. Neuronal apoptosis was assessed 16 hours after NMDA application by determining the percentage of MAP2-positive cells that were also TUNEL positive, as described above.

O=c1cc(N2CCOCC2)oc2c(-c3ccccc3)cccc12 [LY294002]
effect on neuroprotection by EPO and IGF-I alone or in combination: abolished the neuroprotective effect
